The supplement of paper PMC11006884
The entries are a selection whose mix differs from that of the whole data set.

The chains behind the UniProt entries cited, without tags or fusion partners. Where a name states a change or a piece, a line headed by the entry shows the natural chain unless it says otherwise.
UniProt Q9ULL5: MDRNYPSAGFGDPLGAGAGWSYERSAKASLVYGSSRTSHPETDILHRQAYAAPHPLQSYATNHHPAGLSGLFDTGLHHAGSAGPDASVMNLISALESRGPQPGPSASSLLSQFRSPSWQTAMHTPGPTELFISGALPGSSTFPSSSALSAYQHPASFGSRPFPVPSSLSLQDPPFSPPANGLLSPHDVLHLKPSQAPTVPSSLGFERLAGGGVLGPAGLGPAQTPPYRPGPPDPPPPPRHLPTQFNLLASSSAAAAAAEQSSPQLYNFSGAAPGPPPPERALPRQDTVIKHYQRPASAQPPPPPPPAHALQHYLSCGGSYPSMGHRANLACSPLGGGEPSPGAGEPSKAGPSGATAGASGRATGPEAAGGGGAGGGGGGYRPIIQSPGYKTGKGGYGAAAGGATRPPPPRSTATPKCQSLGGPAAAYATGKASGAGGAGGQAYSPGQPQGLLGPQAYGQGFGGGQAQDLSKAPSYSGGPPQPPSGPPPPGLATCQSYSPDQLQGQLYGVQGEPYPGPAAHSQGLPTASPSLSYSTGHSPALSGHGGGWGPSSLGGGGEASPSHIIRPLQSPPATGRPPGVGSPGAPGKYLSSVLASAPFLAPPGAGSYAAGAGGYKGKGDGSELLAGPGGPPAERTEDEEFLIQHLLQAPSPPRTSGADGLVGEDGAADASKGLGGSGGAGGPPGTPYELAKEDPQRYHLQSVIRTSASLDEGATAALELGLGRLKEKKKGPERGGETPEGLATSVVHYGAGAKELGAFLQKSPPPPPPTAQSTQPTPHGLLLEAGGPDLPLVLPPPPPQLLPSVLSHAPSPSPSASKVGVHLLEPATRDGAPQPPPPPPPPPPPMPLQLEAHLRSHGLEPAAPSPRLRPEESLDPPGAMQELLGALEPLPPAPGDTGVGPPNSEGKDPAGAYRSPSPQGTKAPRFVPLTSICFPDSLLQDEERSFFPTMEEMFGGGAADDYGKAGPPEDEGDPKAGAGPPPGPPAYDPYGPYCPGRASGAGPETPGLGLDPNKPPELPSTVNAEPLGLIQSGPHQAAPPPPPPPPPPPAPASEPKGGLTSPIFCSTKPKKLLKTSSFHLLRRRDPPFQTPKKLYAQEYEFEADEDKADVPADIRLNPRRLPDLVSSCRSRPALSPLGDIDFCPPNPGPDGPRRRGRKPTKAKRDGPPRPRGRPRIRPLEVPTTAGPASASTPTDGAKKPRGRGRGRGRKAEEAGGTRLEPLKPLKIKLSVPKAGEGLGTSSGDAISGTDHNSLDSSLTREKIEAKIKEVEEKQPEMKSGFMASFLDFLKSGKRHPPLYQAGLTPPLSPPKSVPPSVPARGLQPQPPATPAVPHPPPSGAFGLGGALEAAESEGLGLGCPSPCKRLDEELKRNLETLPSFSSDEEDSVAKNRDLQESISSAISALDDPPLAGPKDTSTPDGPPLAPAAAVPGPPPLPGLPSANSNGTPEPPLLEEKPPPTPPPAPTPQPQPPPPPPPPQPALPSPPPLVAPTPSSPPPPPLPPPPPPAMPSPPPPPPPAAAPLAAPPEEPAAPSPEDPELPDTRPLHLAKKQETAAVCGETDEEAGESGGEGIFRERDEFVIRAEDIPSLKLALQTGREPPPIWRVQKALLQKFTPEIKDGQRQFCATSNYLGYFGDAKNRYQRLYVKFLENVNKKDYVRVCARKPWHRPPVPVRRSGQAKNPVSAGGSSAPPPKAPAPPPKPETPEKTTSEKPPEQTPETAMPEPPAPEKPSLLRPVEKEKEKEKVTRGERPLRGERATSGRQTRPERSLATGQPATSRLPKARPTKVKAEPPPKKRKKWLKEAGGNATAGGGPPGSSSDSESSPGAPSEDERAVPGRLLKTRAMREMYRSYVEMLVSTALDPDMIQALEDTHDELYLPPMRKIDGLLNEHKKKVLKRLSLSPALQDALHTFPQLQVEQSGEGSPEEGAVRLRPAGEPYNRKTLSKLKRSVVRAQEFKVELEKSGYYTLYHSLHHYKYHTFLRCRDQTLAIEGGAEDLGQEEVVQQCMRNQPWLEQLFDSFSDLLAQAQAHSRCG
UniProt Q9Y2L1: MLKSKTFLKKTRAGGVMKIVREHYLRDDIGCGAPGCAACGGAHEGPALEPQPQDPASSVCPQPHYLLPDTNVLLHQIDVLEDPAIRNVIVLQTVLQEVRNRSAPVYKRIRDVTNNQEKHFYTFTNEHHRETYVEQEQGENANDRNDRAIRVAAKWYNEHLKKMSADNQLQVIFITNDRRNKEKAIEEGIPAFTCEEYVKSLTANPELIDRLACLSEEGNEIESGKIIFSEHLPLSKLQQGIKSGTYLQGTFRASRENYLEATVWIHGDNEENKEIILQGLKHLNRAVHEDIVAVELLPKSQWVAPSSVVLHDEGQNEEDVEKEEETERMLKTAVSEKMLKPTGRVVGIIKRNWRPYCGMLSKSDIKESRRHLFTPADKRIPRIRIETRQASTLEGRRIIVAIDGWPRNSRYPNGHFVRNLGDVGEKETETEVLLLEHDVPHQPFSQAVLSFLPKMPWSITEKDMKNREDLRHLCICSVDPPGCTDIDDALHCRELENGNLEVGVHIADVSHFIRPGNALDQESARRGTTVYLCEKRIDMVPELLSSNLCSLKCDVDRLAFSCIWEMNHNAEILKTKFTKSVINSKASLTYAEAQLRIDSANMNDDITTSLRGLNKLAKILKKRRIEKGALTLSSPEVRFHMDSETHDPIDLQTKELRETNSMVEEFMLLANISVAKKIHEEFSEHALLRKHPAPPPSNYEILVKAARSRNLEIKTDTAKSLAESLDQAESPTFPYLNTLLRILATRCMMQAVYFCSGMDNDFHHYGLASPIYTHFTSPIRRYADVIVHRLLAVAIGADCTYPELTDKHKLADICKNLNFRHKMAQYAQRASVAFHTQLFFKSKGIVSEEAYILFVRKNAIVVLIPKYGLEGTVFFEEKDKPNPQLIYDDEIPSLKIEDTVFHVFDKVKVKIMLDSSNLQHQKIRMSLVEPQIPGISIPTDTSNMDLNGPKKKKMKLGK
UniProt Q9Y3Z3: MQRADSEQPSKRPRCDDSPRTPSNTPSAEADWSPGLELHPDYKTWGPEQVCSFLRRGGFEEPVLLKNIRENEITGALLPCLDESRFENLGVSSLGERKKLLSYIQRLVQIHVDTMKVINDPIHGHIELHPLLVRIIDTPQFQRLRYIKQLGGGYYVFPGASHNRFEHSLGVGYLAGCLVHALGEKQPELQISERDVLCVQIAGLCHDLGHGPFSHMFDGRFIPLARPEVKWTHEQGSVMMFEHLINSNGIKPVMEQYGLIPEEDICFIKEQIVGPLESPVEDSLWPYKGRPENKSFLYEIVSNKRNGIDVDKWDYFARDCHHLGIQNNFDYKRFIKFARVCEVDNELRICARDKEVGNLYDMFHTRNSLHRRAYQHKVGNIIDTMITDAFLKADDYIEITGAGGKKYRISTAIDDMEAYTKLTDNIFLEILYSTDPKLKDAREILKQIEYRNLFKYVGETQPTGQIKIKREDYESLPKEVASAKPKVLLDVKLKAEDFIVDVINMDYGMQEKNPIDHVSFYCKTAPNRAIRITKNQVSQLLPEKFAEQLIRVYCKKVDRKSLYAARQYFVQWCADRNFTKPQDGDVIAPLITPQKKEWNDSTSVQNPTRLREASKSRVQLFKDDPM
UniProt Q9Y2H0: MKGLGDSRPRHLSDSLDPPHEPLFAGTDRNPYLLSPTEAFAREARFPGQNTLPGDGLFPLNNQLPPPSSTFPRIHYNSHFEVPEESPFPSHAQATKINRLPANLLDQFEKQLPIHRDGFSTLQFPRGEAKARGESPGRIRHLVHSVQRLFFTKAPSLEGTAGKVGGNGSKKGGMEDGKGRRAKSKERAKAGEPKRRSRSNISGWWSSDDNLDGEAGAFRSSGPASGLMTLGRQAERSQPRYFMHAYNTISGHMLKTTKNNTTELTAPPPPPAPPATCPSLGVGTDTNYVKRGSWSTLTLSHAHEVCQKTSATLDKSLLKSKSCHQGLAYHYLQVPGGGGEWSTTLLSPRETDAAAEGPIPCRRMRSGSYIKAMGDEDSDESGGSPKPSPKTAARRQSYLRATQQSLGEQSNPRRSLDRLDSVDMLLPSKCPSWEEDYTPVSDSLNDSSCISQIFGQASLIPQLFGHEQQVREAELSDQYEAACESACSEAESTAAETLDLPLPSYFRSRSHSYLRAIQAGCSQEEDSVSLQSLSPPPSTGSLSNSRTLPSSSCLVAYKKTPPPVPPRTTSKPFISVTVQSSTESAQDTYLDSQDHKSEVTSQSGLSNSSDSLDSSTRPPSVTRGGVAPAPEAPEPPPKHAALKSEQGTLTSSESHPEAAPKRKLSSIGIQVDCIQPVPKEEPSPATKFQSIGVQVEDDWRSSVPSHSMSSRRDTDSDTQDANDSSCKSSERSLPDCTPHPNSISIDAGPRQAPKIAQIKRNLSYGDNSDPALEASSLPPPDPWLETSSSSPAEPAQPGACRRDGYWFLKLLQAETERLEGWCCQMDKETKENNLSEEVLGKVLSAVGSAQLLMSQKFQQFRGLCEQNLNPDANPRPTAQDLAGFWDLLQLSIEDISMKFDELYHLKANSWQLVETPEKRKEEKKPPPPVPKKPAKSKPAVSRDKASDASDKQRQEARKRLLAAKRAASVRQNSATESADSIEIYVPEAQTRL
UniProt Q9UPQ0: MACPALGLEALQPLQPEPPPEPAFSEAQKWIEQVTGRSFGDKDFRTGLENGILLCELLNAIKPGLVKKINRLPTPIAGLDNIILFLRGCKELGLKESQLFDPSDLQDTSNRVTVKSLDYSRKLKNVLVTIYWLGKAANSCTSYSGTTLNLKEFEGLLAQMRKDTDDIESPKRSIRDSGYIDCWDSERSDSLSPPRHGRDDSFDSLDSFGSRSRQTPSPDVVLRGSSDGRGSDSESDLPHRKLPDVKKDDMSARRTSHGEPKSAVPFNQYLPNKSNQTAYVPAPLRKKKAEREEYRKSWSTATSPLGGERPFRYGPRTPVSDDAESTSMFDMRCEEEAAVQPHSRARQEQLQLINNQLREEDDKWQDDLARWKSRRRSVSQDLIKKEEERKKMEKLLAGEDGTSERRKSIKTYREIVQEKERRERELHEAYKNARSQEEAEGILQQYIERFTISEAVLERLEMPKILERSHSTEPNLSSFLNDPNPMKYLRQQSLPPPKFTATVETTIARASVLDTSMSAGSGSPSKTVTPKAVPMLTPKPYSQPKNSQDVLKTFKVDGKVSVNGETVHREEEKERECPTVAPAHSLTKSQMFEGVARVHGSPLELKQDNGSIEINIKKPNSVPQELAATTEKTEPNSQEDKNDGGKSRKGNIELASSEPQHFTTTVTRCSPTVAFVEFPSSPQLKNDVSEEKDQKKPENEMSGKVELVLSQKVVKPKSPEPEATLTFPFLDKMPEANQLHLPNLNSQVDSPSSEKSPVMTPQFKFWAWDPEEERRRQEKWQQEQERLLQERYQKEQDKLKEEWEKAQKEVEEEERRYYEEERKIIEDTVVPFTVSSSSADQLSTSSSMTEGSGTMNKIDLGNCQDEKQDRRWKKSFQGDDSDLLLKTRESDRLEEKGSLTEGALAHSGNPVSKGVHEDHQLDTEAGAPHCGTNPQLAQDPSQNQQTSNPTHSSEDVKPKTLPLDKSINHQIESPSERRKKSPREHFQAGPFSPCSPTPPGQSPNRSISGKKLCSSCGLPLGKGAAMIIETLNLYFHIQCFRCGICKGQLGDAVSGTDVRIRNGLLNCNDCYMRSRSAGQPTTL
UniProt Q9UHW5, whole entry, looked up: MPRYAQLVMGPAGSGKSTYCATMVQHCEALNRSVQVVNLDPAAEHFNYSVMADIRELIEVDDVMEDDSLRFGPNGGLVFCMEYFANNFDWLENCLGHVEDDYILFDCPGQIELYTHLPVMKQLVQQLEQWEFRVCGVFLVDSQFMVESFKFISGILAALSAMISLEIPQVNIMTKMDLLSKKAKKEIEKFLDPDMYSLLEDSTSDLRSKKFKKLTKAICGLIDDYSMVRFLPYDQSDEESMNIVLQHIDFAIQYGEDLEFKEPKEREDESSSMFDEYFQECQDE
UniProt Q9Y314: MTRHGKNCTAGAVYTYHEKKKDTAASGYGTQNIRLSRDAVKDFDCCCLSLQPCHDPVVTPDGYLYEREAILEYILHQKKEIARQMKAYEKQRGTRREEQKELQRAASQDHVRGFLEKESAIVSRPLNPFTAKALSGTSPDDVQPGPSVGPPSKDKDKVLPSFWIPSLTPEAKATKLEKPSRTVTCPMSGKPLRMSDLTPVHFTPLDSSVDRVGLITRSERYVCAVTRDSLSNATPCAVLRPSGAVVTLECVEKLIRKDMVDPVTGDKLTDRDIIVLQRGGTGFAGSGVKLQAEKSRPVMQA

compound: COC(=O)C#Cc1ccccc1 [methyl 3-phenylpropiolate]; assay: log2 ratio of iodoacetamide-alkyne labeling of the cysteine site, DMSO over compound (competition); higher = stronger covalent engagement of the cysteine by the compound, active = 1 or more; details: 500 µM; treatment time 1 h; system: HEK293T cell lysate
Outline: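 The log2 competition ratio per cysteine is defined as mean reporter intensity in control channels over mean reporter intensity in compound channels. Lysate from HEK293T cells (2 mg/mL) received electrophile (500 µM) or vehicle for 1 h at ambient temperature, followed by iodoacetamide alkyne for 1 h. Samples were clicked to sCIP-TMT reagents, pooled, trypsin-digested overnight at 37 °C, streptavidin-enriched, acid-eluted and run on Orbitrap Eclipse LC-MS/MS with FAIMS, with quantification in FragPipe. Three replicates with duplicate channels were used, and any cysteine quantified in only one replicate was excluded.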

log2 ratio of iodoacetamide-alkyne labeling, inactive:
TDRKH C109 (UniProt Q9Y2W6) 0.355, PRPF19 C5 (UniProt Q9UMS4) 0.304, UniProt Q9UPN4_C218 0.212, PRR12 C322 (UniProt Q9ULL5) 0.259, UniProt Q9UI30_C33 0.087, DIS3 C194 (UniProt Q9Y2L1) 0.154, SAMHD1 C341 (UniProt Q9Y3Z3) 0.323, UniProt Q9UK61_C538 0.279, ACIN1 C546 (UniProt Q9UKV3) 0.343, UniProt Q9UIF8_C1223 0.408, DLGAP4 C736 (UniProt Q9Y2H0) 0.69, LIMCH1 C669 (UniProt Q9UPQ0) 0.285, GPN3 C219 (UniProt Q9UHW5) 0.0998, NOSIP C185 (UniProt Q9Y314) 0.25, MRPS7 C152 (UniProt Q9Y2R9) -0.102
